Experimental data reported in patent US9284543B2, “Neutral active soluble truncated PH20 polypeptides and uses thereof” (Halozyme, Inc., priority 2008, dated 2016).

B1: SPAM1-VDVC: C-terminally truncated human PH20, precursor 458 aa (SEQ ID NO:39), mature 423 aa (SEQ ID NO:91) (protein, listed as Homo sapiens)
chain 1: MGVLKFKHIFFRSFVKSSGVSQIVFTFLLIPCCLTLNFRAPPVIPNVPFLWAWNAPSEFCLGKFDEPLDMSLFSFIGSPRINATGQGVTIFYVDRLGYYPYIDSITGVTVNGGIPQKISLQDHLDKAKKDITFYMPVDNLGMAVIDWEEWRPTWARNWKPKDVYKNRSIELVQQQNVQLSLTEATEKAKQEFEKAGKDFLVETIKLGKLLRPNHLWGYYLFPDCYNHHYKKPGYNGSCFNVEIKRNDDLSWLWNESTALYPSIYLNTQQSPVAATLYVRNRVREAIRVSKIPDAKSPLPVFAYTRIVFTDQVLKFLSQDELVYTFGETVALGASGIVIWGTLSIMRSMKSCLLLDNYMETILNPYIINVTLAAKMCSQVLCQEQGVCIRKNWNSSDYLHLNPDNFAIQLEKGGKFTVRGKPTLEDLEQFSEKFYCSCYSTLSCKEKADVKDTDAVDVC
chain 2: LNFRAPPVIPNVPFLWAWNAPSEFCLGKFDEPLDMSLFSFIGSPRINATGQGVTIFYVDRLGYYPYIDSITGVTVNGGIPQKISLQDHLDKAKKDITFYMPVDNLGMAVIDWEEWRPTWARNWKPKDVYKNRSIELVQQQNVQLSLTEATEKAKQEFEKAGKDFLVETIKLGKLLRPNHLWGYYLFPDCYNHHYKKPGYNGSCFNVEIKRNDDLSWLWNESTALYPSIYLNTQQSPVAATLYVRNRVREAIRVSKIPDAKSPLPVFAYTRIVFTDQVLKFLSQDELVYTFGETVALGASGIVIWGTLSIMRSMKSCLLLDNYMETILNPYIINVTLAAKMCSQVLCQEQGVCIRKNWNSSDYLHLNPDNFAIQLEKGGKFTVRGKPTLEDLEQFSEKFYCSCYSTLSCKEKADVKDTDAVDVC
modifications: HuPH20 precursor 1-458; Mature HuPH20 36-458
B2: SPAM1-DGVC: C-terminally truncated human PH20, precursor 464 aa (SEQ ID NO:36), mature 429 aa (SEQ ID NO:88) (protein, listed as Homo sapiens)
chain 1: MGVLKFKHIFFRSFVKSSGVSQIVFTFLLIPCCLTLNFRAPPVIPNVPFLWAWNAPSEFCLGKFDEPLDMSLFSFIGSPRINATGQGVTIFYVDRLGYYPYIDSITGVTVNGGIPQKISLQDHLDKAKKDITFYMPVDNLGMAVIDWEEWRPTWARNWKPKDVYKNRSIELVQQQNVQLSLTEATEKAKQEFEKAGKDFLVETIKLGKLLRPNHLWGYYLFPDCYNHHYKKPGYNGSCFNVEIKRNDDLSWLWNESTALYPSIYLNTQQSPVAATLYVRNRVREAIRVSKIPDAKSPLPVFAYTRIVFTDQVLKFLSQDELVYTFGETVALGASGIVIWGTLSIMRSMKSCLLLDNYMETILNPYIINVTLAAKMCSQVLCQEQGVCIRKNWNSSDYLHLNPDNFAIQLEKGGKFTVRGKPTLEDLEQFSEKFYCSCYSTLSCKEKADVKDTDAVDVCIADGVC
chain 2: LNFRAPPVIPNVPFLWAWNAPSEFCLGKFDEPLDMSLFSFIGSPRINATGQGVTIFYVDRLGYYPYIDSITGVTVNGGIPQKISLQDHLDKAKKDITFYMPVDNLGMAVIDWEEWRPTWARNWKPKDVYKNRSIELVQQQNVQLSLTEATEKAKQEFEKAGKDFLVETIKLGKLLRPNHLWGYYLFPDCYNHHYKKPGYNGSCFNVEIKRNDDLSWLWNESTALYPSIYLNTQQSPVAATLYVRNRVREAIRVSKIPDAKSPLPVFAYTRIVFTDQVLKFLSQDELVYTFGETVALGASGIVIWGTLSIMRSMKSCLLLDNYMETILNPYIINVTLAAKMCSQVLCQEQGVCIRKNWNSSDYLHLNPDNFAIQLEKGGKFTVRGKPTLEDLEQFSEKFYCSCYSTLSCKEKADVKDTDAVDVCIADGVC
modifications: HuPH20 precursor 1-464; Mature HuPH20 36-464
B3: SPAM1-SSVA: C-terminally truncated human PH20, precursor 507 aa (SEQ ID NO:3), mature 472 aa (SEQ ID NO:55) (protein, listed as Homo sapiens)
chain 1: MGVLKFKHIFFRSFVKSSGVSQIVFTFLLIPCCLTLNFRAPPVIPNVPFLWAWNAPSEFCLGKFDEPLDMSLFSFIGSPRINATGQGVTIFYVDRLGYYPYIDSITGVTVNGGIPQKISLQDHLDKAKKDITFYMPVDNLGMAVIDWEEWRPTWARNWKPKDVYKNRSIELVQQQNVQLSLTEATEKAKQEFEKAGKDFLVETIKLGKLLRPNHLWGYYLFPDCYNHHYKKPGYNGSCFNVEIKRNDDLSWLWNESTALYPSIYLNTQQSPVAATLYVRNRVREAIRVSKIPDAKSPLPVFAYTRIVFTDQVLKFLSQDELVYTFGETVALGASGIVIWGTLSIMRSMKSCLLLDNYMETILNPYIINVTLAAKMCSQVLCQEQGVCIRKNWNSSDYLHLNPDNFAIQLEKGGKFTVRGKPTLEDLEQFSEKFYCSCYSTLSCKEKADVKDTDAVDVCIADGVCIDAFLKPPMETEEPQIFYNASPSTLSATMFIVSILFLIISSVA
chain 2: LNFRAPPVIPNVPFLWAWNAPSEFCLGKFDEPLDMSLFSFIGSPRINATGQGVTIFYVDRLGYYPYIDSITGVTVNGGIPQKISLQDHLDKAKKDITFYMPVDNLGMAVIDWEEWRPTWARNWKPKDVYKNRSIELVQQQNVQLSLTEATEKAKQEFEKAGKDFLVETIKLGKLLRPNHLWGYYLFPDCYNHHYKKPGYNGSCFNVEIKRNDDLSWLWNESTALYPSIYLNTQQSPVAATLYVRNRVREAIRVSKIPDAKSPLPVFAYTRIVFTDQVLKFLSQDELVYTFGETVALGASGIVIWGTLSIMRSMKSCLLLDNYMETILNPYIINVTLAAKMCSQVLCQEQGVCIRKNWNSSDYLHLNPDNFAIQLEKGGKFTVRGKPTLEDLEQFSEKFYCSCYSTLSCKEKADVKDTDAVDVCIADGVCIDAFLKPPMETEEPQIFYNASPSTLSATMFIVSILFLIISSVA
modifications: HuPH20 precursor 1-507; mature HuPH20 36-507
B4: SPAM1-IADG: C-terminally truncated human PH20, precursor 462 aa (SEQ ID NO:37), mature 427 aa (SEQ ID NO:89) (protein, listed as Homo sapiens)
chain 1: MGVLKFKHIFFRSFVKSSGVSQIVFTFLLIPCCLTLNFRAPPVIPNVPFLWAWNAPSEFCLGKFDEPLDMSLFSFIGSPRINATGQGVTIFYVDRLGYYPYIDSITGVTVNGGIPQKISLQDHLDKAKKDITFYMPVDNLGMAVIDWEEWRPTWARNWKPKDVYKNRSIELVQQQNVQLSLTEATEKAKQEFEKAGKDFLVETIKLGKLLRPNHLWGYYLFPDCYNHHYKKPGYNGSCFNVEIKRNDDLSWLWNESTALYPSIYLNTQQSPVAATLYVRNRVREAIRVSKIPDAKSPLPVFAYTRIVFTDQVLKFLSQDELVYTFGETVALGASGIVIWGTLSIMRSMKSCLLLDNYMETILNPYIINVTLAAKMCSQVLCQEQGVCIRKNWNSSDYLHLNPDNFAIQLEKGGKFTVRGKPTLEDLEQFSEKFYCSCYSTLSCKEKADVKDTDAVDVCIADG
chain 2: LNFRAPPVIPNVPFLWAWNAPSEFCLGKFDEPLDMSLFSFIGSPRINATGQGVTIFYVDRLGYYPYIDSITGVTVNGGIPQKISLQDHLDKAKKDITFYMPVDNLGMAVIDWEEWRPTWARNWKPKDVYKNRSIELVQQQNVQLSLTEATEKAKQEFEKAGKDFLVETIKLGKLLRPNHLWGYYLFPDCYNHHYKKPGYNGSCFNVEIKRNDDLSWLWNESTALYPSIYLNTQQSPVAATLYVRNRVREAIRVSKIPDAKSPLPVFAYTRIVFTDQVLKFLSQDELVYTFGETVALGASGIVIWGTLSIMRSMKSCLLLDNYMETILNPYIINVTLAAKMCSQVLCQEQGVCIRKNWNSSDYLHLNPDNFAIQLEKGGKFTVRGKPTLEDLEQFSEKFYCSCYSTLSCKEKADVKDTDAVDVCIADG
modifications: HuPH20 precursor 1-462; Mature HuPH20 36-462
B5: SPAM1-VCIA: C-terminally truncated human PH20, precursor 460 aa (SEQ ID NO:38), mature 425 aa (SEQ ID NO:90) (protein, listed as Homo sapiens)
chain 1: MGVLKFKHIFFRSFVKSSGVSQIVFTFLLIPCCLTLNFRAPPVIPNVPFLWAWNAPSEFCLGKFDEPLDMSLFSFIGSPRINATGQGVTIFYVDRLGYYPYIDSITGVTVNGGIPQKISLQDHLDKAKKDITFYMPVDNLGMAVIDWEEWRPTWARNWKPKDVYKNRSIELVQQQNVQLSLTEATEKAKQEFEKAGKDFLVETIKLGKLLRPNHLWGYYLFPDCYNHHYKKPGYNGSCFNVEIKRNDDLSWLWNESTALYPSIYLNTQQSPVAATLYVRNRVREAIRVSKIPDAKSPLPVFAYTRIVFTDQVLKFLSQDELVYTFGETVALGASGIVIWGTLSIMRSMKSCLLLDNYMETILNPYIINVTLAAKMCSQVLCQEQGVCIRKNWNSSDYLHLNPDNFAIQLEKGGKFTVRGKPTLEDLEQFSEKFYCSCYSTLSCKEKADVKDTDAVDVCIA
chain 2: LNFRAPPVIPNVPFLWAWNAPSEFCLGKFDEPLDMSLFSFIGSPRINATGQGVTIFYVDRLGYYPYIDSITGVTVNGGIPQKISLQDHLDKAKKDITFYMPVDNLGMAVIDWEEWRPTWARNWKPKDVYKNRSIELVQQQNVQLSLTEATEKAKQEFEKAGKDFLVETIKLGKLLRPNHLWGYYLFPDCYNHHYKKPGYNGSCFNVEIKRNDDLSWLWNESTALYPSIYLNTQQSPVAATLYVRNRVREAIRVSKIPDAKSPLPVFAYTRIVFTDQVLKFLSQDELVYTFGETVALGASGIVIWGTLSIMRSMKSCLLLDNYMETILNPYIINVTLAAKMCSQVLCQEQGVCIRKNWNSSDYLHLNPDNFAIQLEKGGKFTVRGKPTLEDLEQFSEKFYCSCYSTLSCKEKADVKDTDAVDVCIA
modifications: HuPH20 precursor 1-460; Mature HuPH20 36-460

System: CHO-S cells
Assay: Western blot analysis of PH20 expression in media and cells after transient expression
Format: cell-based, Chinese Hamster
Conditions: band at approximately 66 kDa
Procedure: The mutant PH20-HZ24 plasmids generated in Example 1 were transiently […] into CHO—S cells (derived from Chinese Hamster Ovary CHO K1 cells) using GeneJuice® (Novagen) according to the manufacturer's instructions. In short, the CHO—S cells were grown in CD CHO medium supplemented with L-glutamine. Prior to transfection, the CHO—S cells were plated in 6-well plates, with approximately 5×10^5 cells per well, and grown overnight at 37° C. with 5% CO2. The medium was then removed and the CHO—S cells were washed 2 times with 1 mL serum-free medium. GeneJuice® was mixed with serum-free media followed by the addition of 2 μg mutant-HZ24 DNA. After incubating at room temperature for 5-15 minutes, the GeneJuice®/DNA mixture was added dropwise to an individual well containing the washed CHO—S cells. After 4 hours, the medium was replaced with 1 mL CD-CHO medium supplemented with L-glutamine and the cells were incubated for 72 hours at 37° C. with 5% CO2. Following expression, the media and cells were harvested separately.
The mutant PH20-HZ24 plasmids generated in Example 1 were transiently […] into CHO—S cells using GeneJuice® (Novagen) according to the manufacturer's instructions. […]
In this example, following transient expression, as described in Example 2 above, the media and cells were harvested separately and analyzed for PH20 expression and solublility by Western blot analysis. Solubility of the C-terminus truncation mutants was determined by examining whether the expressed protein was present in the growth media or in the cells. […] Cells expressing these mutants were treated with phosphoinositol-phospholipase C (PI-PLC), which cleaves the GPI-anchor allowing the release of soluble protein into the media, and the presence of PH20 in the resulting media and cells was determined by Western blot analysis.
Non-reduced samples were run on a 4-20% Tris-Glycine gel and transferred to PVDF membrane using iBlot (Invitrogen). For the Western blot, rabbit anti-PH20 IgG (0.5 μg/mL) was used as the primary antibody and HRP-conjugated goat anti-rabbit IgG (0.1 ng/mL, Cat#DC03L, EMD) was used as the secondary antibody. Evidence of expression is determined by a band at approximately 66 kDa, corresponding to recombinant human PH20 hyaluronidase.

| Molecule | Protein Expression |
| --- | --- |
| B1 | YES |
| B2 | YES |
| B3 | YES |
| B4 | YES |
| B5 | YES |
